Results: PubChem BioAssay AID1347075 (National Center for Advancing Translational Sciences (NCATS), 2019)
The whole screen tested about 400,000 compounds, of which about 5,500 (1.4%) were called active. Inconclusive results, whose numbers are uncertain, are shown with a selection of clear calls. Calls come from the whole dose curve; as a rule, active = well fitted cell-killing curve with a large enough effect; inconclusive = small, poorly fitted or top-dose-only effect, or effect the other way; inactive = flat fitted curve, though single readings scatter. Potencies of inconclusive entries are doubtful fits and often do not repeat.

test: qHTS assay for MDR1-selective chemotherapeutics: Primary screen using the parental adenocarcinoma cell KB-3-1; settings: KB-3-1 viability, CellTiter-Glo ATP luminescence, 72 h; activity change, negative = cytotoxic: at 46.1 µM (top of the series); note: nearly all actives have a fitted effect of over 60% in size
In short: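 Cytotoxicity measured as CellTiter-Glo luminescence after 72 h at 37 C. Compound titrations were pinned onto drug-naive KB-3-1 parental adenocarcinoma cells grown in DMEM with 10% FBS, and normalized data fitted to concentration-response curves.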
% is set by controls: 0 for no effect and ±100 for the full control effect; potency is the fitted concentration of half-maximal effect.

Structure (SMILES) | Potency | activity change, negative = cytotoxic
S=Cc1ccc(/C=C/c2ccnc3ccccc23)cc1 | inconclusive: 32.6 µM [rising, partial curve, poor fit] | 
Cc1ccccc1OCCSCc1nc2ccccc2[nH]1 | inconclusive: 25.9 µM [cytotoxic, single point] | 
COc1ccccc1NC(=O)C(C)Nc1ccc(C)c(Cl)c1 (configuration not stated) | inconclusive: 29.1 µM [cytotoxic, single point] | 
CCOc1ccc(CCNC(=O)CN2C(=O)NC3(CCCC3)C2=O)cc1OCC | inactive | 
CCCNC(=O)c1ccc2c(=O)c(O)c(-c3ccc(F)cc3)[nH]c2c1 | inconclusive: 23.1 µM [cytotoxic, single point] | 
Cc1cc(C)cc(NC(=O)CSc2nccn2-c2ccccc2)c1 | inactive | 
CC(C)CC1C(=O)N(Cc2cn(CCC3OCCCO3)nn2)CCS(=O)(=O)N1Cc1ccc(-c2ccc(Cl)nc2)cc1 (configuration not stated) | inconclusive: 29.1 µM [cytotoxic, single point] | 
O=C(CCc1ccccc1)NC(NC(=S)Nc1ccc(Cl)cc1)C(Cl)(Cl)Cl (configuration not stated) | active: 18.4 µM | 
Cc1cc2nc(NCCCO)n(CC(=O)c3cc(C(C)(C)C)c(O)c(C(C)(C)C)c3)c2cc1C | inconclusive: 20.6 µM [cytotoxic, single point] | 
COc1ccc2[nH]cc(CCNC(=O)CC[C@H]3O[C@@H](n4cc(C)c(=O)[nH]c4=O)C[C@@H]3O)c2c1 | inactive | 
Cc1cccc2nc(-c3cccnc3)c(Nc3ccc(C(C)C)cc3)n12 | inconclusive: 23.1 µM [cytotoxic, single point] | 
O=C(Nc1nnc(-c2cccs2)o1)c1ccco1 | inactive | 
CCOc1ccc(CN2CCN(Cc3[nH]c4ccccc4c3C)CC2CCO)cc1 (configuration not stated) | inconclusive: 16.4 µM [cytotoxic, partial curve] | 
Cn1c2c(c(=O)n(C)c1=O)C(c1ccc(Br)cc1)Nc1ccccc1O2 (configuration not stated) | inconclusive: 18.4 µM [rising, single point] | 
COc1cccc(Nc2cc(N3CCOCC3)c3nonc3c2[N+](=O)[O-])c1 | inconclusive: 20.6 µM [cytotoxic, single point] | 
CCOC(=O)c1sc(Nc2nc(C)cc(C)n2)nc1C | inconclusive: 32.6 µM [cytotoxic, partial curve, poor fit] | 
O=C(Nc1ccccc1C(=O)Nc1nnc(C(F)(F)F)s1)c1ccccc1 | inconclusive: 4.61 µM [cytotoxic, full curve, poor fit] | 
CC1(C)Cc2c(sc(/N=C/N3CCCCCC3)c2C#N)C(C)(C)N1 | inconclusive: 20.6 µM [rising, single point] | 
CCOC(=O)c1c(NC(=O)CSC2=NN3CCCC(=O)N=C3S2)sc2c1CCCCC2 | inconclusive: 29.1 µM [cytotoxic, single point] | 
COc1cc(/C=C/C(O)=C/C(=O)/C=C/c2ccc(O)cc2)ccc1O | inconclusive: 20.6 µM [cytotoxic, single point] | 
CC(C)OCCCN(Cc1ccco1)C(=O)c1cc2c(s1)-c1ccccc1OC2 | active: 16.4 µM | 
Cc1cc(C)cc(NC(=O)c2nnn(Cc3cc(C)ccc3C)c2N)c1 | inconclusive: 14.6 µM [cytotoxic, partial curve, poor fit] | 
O=S(=O)(Nc1ccccc1N1CCCCC1)c1cccs1 | inconclusive: 3.26 µM [cytotoxic, partial curve, poor fit] | 

Structure (SMILES) | Potency | activity change, negative = cytotoxic
CN(CC(=O)Nc1ccc(F)cc1)C(=O)COC(=O)/C=C/c1ccccc1[N+](=O)[O-] | inconclusive: 29.1 µM [cytotoxic, single point] | 
O=C(COc1nc2ccccc2nc1N1CCOCC1)N1CCc2ccccc21 | inconclusive: 29.1 µM [cytotoxic, single point] | 
COc1cc2c(cc1OC)/C(=C/c1ccc(N(C)C)cc1)C=C2 | inactive | 
O=C(O)c1cnn(-c2nc(-c3ccc(Br)cc3)cs2)c1C(F)(F)F | inactive | 
COc1cc(C(O)c2nc(-c3cccc(C(F)(F)F)c3)cs2)ccc1F (configuration not stated) | inactive | 
Cc1ccc(-c2nc3ccccc3n2C)o1 | inconclusive: 14.6 µM [cytotoxic, single point] | 
Cc1ccc(Cl)cc1NC(=O)N1CCN(C)c2ncccc21 | inconclusive: 29.1 µM [rising, single point] | 
CC(C)c1ccc(/C=N/n2c(COc3ccccc3)n[nH]c2=S)cc1 | inactive | 
Cc1cc(OC(C)C(=O)N(Cc2ccco2)C2CCS(=O)(=O)C2)cc(C)c1Cl (configuration not stated) | inconclusive: 14.6 µM [cytotoxic, partial curve, poor fit] | 
CCOC(=O)[C@@H](C)N(C(=O)OC(C)(C)C)S(=O)(=O)N(Cc1ccccc1)[C@H](C(=O)OC)C(C)C | inconclusive: 18.4 µM [cytotoxic, single point] | 
CCOCCOC(=O)c1ccc(NC(=O)/C=C/c2ccc(OC)c(OC)c2)cc1 | inactive | 
CC(=O)c1ccc(S(=O)(=O)N2CCCC(N(C)CCc3ccccn3)C2)cc1 (configuration not stated) |  | inconclusive: -58.6%
Cc1ccc(/C=C2\SC(=S)N(CCC(=O)N3CCCCC3)C2=O)cc1 | inconclusive: 29.1 µM [cytotoxic, single point] | 
O=C(NCCc1c[nH]c2ccccc12)OC1CC2CC1[C@H]1CCCCN1C2=O (some centres not stated) | inactive | 
COc1cc2c3c(c1)/C(=C1/SC(=S)NC1=O)C(=O)N3C(C)(C)C=C2C | inconclusive: 29.1 µM [cytotoxic, single point] | 
CCCCn1c(/C=N/Nc2nc3ccccc3[nH]2)nc2ccccc21 | inconclusive: 20.6 µM [cytotoxic, single point] | 
CCCN1CCN(c2cccc(Nc3nn4c(=O)c5ccccc5nc4s3)c2)CC1 | inconclusive: 0.206 µM [rising, full curve] | 
COCc1c(C(=O)NCCOc2ccc(Cl)cc2)oc2ccccc12 | inactive | 
CCC(COC(=O)c1ccccc1)Oc1cc(NCc2ccccc2)c2ncn(C(C)C)c2c1 (configuration not stated) |  | inconclusive: -32% [cytotoxic]
O=C(CCCCCn1c(=S)[nH]c2ccc(N3CCOCC3)cc2c1=O)NCc1ccc2c(c1)OCO2 | inconclusive: 29.1 µM [cytotoxic, single point] | 
NCCSC1CC(=O)N(c2ccc(F)cc2)C1=O (configuration not stated) | inconclusive: 4.61 µM [rising, single point] | 
O=C(Nc1nc(-c2ccccn2)cs1)Nc1ccc(F)cc1F | inactive | 
O=C(Cn1[nH]c(=O)c2ccccc2c1=O)N1CCN(S(=O)(=O)c2ccc(Cl)cc2)CC1 | inactive | 

Structure (SMILES) | Potency | activity change, negative = cytotoxic
Cc1ccc(Cl)cc1N1CCN(C(=O)CSc2nnc3n2C(C)(C)Cc2ccccc2-3)CC1 | inconclusive: 16.4 µM [cytotoxic, partial curve] | 
COc1ccc2[nH]cc(C(O)CN3CCN(c4ccccc4F)CC3)c2c1 (configuration not stated) | inconclusive: 18.4 µM [rising, single point] | 
CC(C)N1C/C(=C/c2ccsc2)C(=O)/C(=C/c2ccsc2)C1 | active: 14.6 µM | 
O=C(Nc1cccc(Cl)c1)c1c(NC(=O)C(F)(F)F)sc2c1CCCC2 | inconclusive: 29.1 µM [cytotoxic, single point] | 
CC1=C(C(=O)Nc2ccc(CC(=O)NCc3ccc(OC(C)C)cc3)cc2)SCCO1 | active: 0.366 µM | 
COc1ccc2cc3c(N)nn(C(=O)Cc4c[nH]c5ccccc45)c3nc2c1 | inconclusive: 29.1 µM [cytotoxic, single point] | 
Cc1nn(-c2nc3ccccc3n2Cc2ccccc2)c2c1C(=O)CC(C)(C)C2 | inconclusive: 29.1 µM [cytotoxic, single point] | 
COc1ccc(/C=C(\NC(=O)c2cccs2)C(=O)Nc2ccccc2C)cc1OC | inconclusive: 25.9 µM [rising, partial curve] | 
O=C(Nc1cccc(F)c1)C1CCCN(C(=O)c2ccc(Cl)cc2)C1 (configuration not stated) | inconclusive: 29.1 µM [cytotoxic, single point] | 
COc1ccc(CCNCc2c(C(=O)O)c(C)n(Cc3ccccc3C)c2C)c(OC)c1 | inactive | 
CC(=O)c1c(C)[nH]c(C(=O)OCc2cccc(C)c2)c1C | inconclusive: 11.6 µM [cytotoxic, partial curve, poor fit] | 
O=C(Nc1cccc(Cl)c1)Nc1cccc(C(=O)O)c1 |  | inconclusive: -0.95%
CC(=O)NCCc1nc2cc(NC(=O)c3ccccc3C)ccc2n1C | inactive | 
NS(=O)(=O)c1ccc(S(=O)(=O)N2CCCC(c3ccccc3)C2)cc1 (configuration not stated) | inconclusive: 20.6 µM [cytotoxic, partial curve, poor fit] | 
Cc1nnc(SCC(=O)Nc2cc(S(C)(=O)=O)ccc2Cl)n1Cc1ccccc1 | inconclusive: 23.1 µM [rising, single point] | 
O=[N+]([O-])c1ccccc1CCc1cnc(Cl)s1 | inactive | 
Cc1ccc(S(=O)(=O)/N=C2/NC(=O)/C(=C\c3ccccc3)S2)cc1 | inconclusive: 29.1 µM [cytotoxic, single point] | 
Cc1cccc(N2CCN(C(=O)C3CCCN(S(=O)(=O)c4c(C)noc4C)C3)CC2)c1C (configuration not stated) | inconclusive: 29.1 µM [cytotoxic, single point] | 
O=C(COC(=O)c1ccc([N+](=O)[O-])o1)Nc1ncc(Cl)cc1Cl | inconclusive: 32.6 µM [rising, partial curve, poor fit] | 
[2H]c1c([2H])c([2H])c(C(=O)c2sc(N3CCCCCC3)nc2-c2ccccc2)c([2H])c1[2H] | inconclusive: 29.1 µM [cytotoxic, single point] | 
Cc1cccnc1CN1CCN(C(=O)c2cc(COc3ccc4ncccc4c3)on2)CC1 | inconclusive: 29.1 µM [cytotoxic, single point] | 

Record cards, from the list above:
O=C(COc1nc2ccccc2nc1N1CCOCC1)N1CCc2ccccc21 as listed: Potency: inconclusive: 29.1 µM [cytotoxic, single point]
COc1cc2c(cc1OC)/C(=C/c1ccc(N(C)C)cc1)C=C2 as listed: Potency: inactive

Looked up one by one from above:
Structure (SMILES) | Potency | activity change, negative = cytotoxic
Cc1ccc(Cl)cc1N1CCN(C(=O)CSc2nnc3n2C(C)(C)Cc2ccccc2-3)CC1 | inconclusive: 16.4 µM [cytotoxic, partial curve] | 
COc1ccc(/C=C(\NC(=O)c2cccs2)C(=O)Nc2ccccc2C)cc1OC | inconclusive: 25.9 µM [rising, partial curve] | 
